PubChem BioAssay AID686938 – Drosophila RNAi Screening Center – 2013
Assay: 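Knock-downs reducing store-operated calcium influx in Drosophila cells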 (primary screen). Cells: Drosophila S2R+ cells. Reagents: long dsRNA against Drosophila genes, about 0.25 µg dsRNA per well, roughly 10,000 cells. Timing: 5 days of knock-down before the calcium assay. Challenge: thapsigargin (SERCA pump blocker) to empty calcium stores; entry signal taken 4 min after adding it. Detection: 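Duplicate raw fluo-4 intensities per well from a plate reader, at rest and four minutes after thapsigargin emptied calcium stores; entry-to-rest ratio filled for only some wells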. Direction: calcium entry signal: higher = stronger calcium signal after store depletion; entry to resting ratio: higher = more calcium entry relative to resting level; resting calcium signal: higher = higher resting calcium signal. Call rule: 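Called when the plate z-score of the entry-to-rest ratio, mean of duplicates, falls below −3; wells with low overall dye signal (Fmax z below −2) or more than five off-targets excluded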. Calls: active = strongly reduced calcium entry; inactive = no strong reduction.
The deposit covers about 23,000 reagents; below is a random part of those that have a named target and a result. In the full data, 75 (0.33%) are marked active. 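Raw plate signals without normalisation; calls rest on plate z-scores that were not deposited; ratio present for only 364 wells.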 Unmarked entries are inactive. Not given: the dose of the treatment.

gene	DRSC id	calcium entry signal, replicate 1 (fluorescence units)	calcium entry signal, replicate 2 (fluorescence units)	entry to resting ratio	resting calcium signal, replicate 1 (fluorescence units)	resting calcium signal, replicate 2 (fluorescence units)
prim (primacord)	DRSC06575	4.19e7	4.79e7		1.73e7	2.20e7
CG13048	DRSC09929	3.22e7	5.93e7		1.80e7	2.22e7
Myc	DRSC18762	4.08e7	4.15e7	1.8	2.24e7	2.08e7
dsd (distracted)	DRSC13829	4.07e7	2.92e7		1.55e7	1.41e7
dsd (distracted)	DRSC15850	4.50e7	5.21e7		2.11e7	2.29e7
CG42397	DRSC09147	4.65e7	4.86e7		2.63e7	2.08e7
Pex2 (Peroxin 2)	DRSC10770	3.41e7	2.42e7		2.34e7	1.01e7
CG15247	DRSC17976	2.97e7	5.46e7		1.52e7	2.63e7
CG9503	DRSC20186	4.49e7	3.10e7		2.13e7	1.45e7
CG9503	DRSC21766	2.85e7	3.22e7		1.53e7	1.54e7
CG10761	DRSC17753	3.11e7	5.16e7		1.67e7	2.25e7
CG9899	DRSC04597	3.94e7	4.38e7		2.03e7	2.04e7
CG34025	DRSC08014	4.80e7	3.76e7		2.69e7	1.82e7
CG12692	DRSC17881	3.35e7	4.43e7		1.64e7	1.98e7
RpS26 (Ribosomal protein S26)	DRSC03420	1.45e7	1.30e7		1.20e7	9.24e6
Vps39 (Vacuolar protein sorting 39)	DRSC16205	4.23e7	4.10e7		1.94e7	1.69e7
CG3649	DRSC04400	4.28e7	4.65e7		2.08e7	2.02e7
CG15145	DRSC02446	4.57e7	3.37e7		2.06e7	1.66e7
Set8 (SET domain containing 8)	DRSC15473	2.66e7	2.92e7		1.35e7	1.61e7
ATP8 (retired record)	DRSC21277	3.72e7	4.32e7		2.06e7	2.00e7
Pex13 (Peroxin 13)	DRSC06877	2.33e7	2.52e7		1.09e7	1.26e7
sna (snail)	DRSC03613	4.20e7	3.45e7		1.92e7	1.75e7
fdl (fused lobes)	DRSC07279	3.42e7	3.46e7		1.75e7	1.72e7

2 of these entries, reformatted.
CG34025 [DRSC08014]
- calcium entry signal, replicate 1 (fluorescence units): 4.80e7
- calcium entry signal, replicate 2 (fluorescence units): 3.76e7
- resting calcium signal, replicate 1 (fluorescence units): 2.69e7
- resting calcium signal, replicate 2 (fluorescence units): 1.82e7

CG12692 [DRSC17881]
- calcium entry signal, replicate 1 (fluorescence units): 3.35e7
- calcium entry signal, replicate 2 (fluorescence units): 4.43e7
- resting calcium signal, replicate 1 (fluorescence units): 1.64e7
- resting calcium signal, replicate 2 (fluorescence units): 1.98e7

The listing continues:
gene	DRSC id	calcium entry signal, replicate 1 (fluorescence units)	calcium entry signal, replicate 2 (fluorescence units)	entry to resting ratio	resting calcium signal, replicate 1 (fluorescence units)	resting calcium signal, replicate 2 (fluorescence units)
mRpS18A (mitochondrial ribosomal protein S18A)	DRSC14369	5.02e7	3.19e7		2.29e7	1.50e7
hppy (happyhour)	DRSC07014	4.90e7	3.71e7		2.10e7	1.92e7
hppy (happyhour)	DRSC07015	4.48e7	3.40e7		1.84e7	1.68e7
hppy (happyhour)	DRSC07016	4.70e7	3.52e7		1.91e7	1.75e7
Nepl21 (Neprilysin-like 21)	DRSC14133	3.94e7	3.56e7		1.58e7	1.47e7
if (inflated)	DRSC20341	4.35e7	3.48e7		2.17e7	1.59e7
CG31140	DRSC13649	4.30e7	2.99e7		1.84e7	1.51e7
CG31140	DRSC14603	2.92e7	2.74e7		1.41e7	1.31e7
CG31140	DRSC15904	5.18e7	6.44e7		2.42e7	2.61e7
ClC-b (Chloride channel-b)	DRSC07220	2.92e7	3.54e7		1.54e7	1.76e7
wb (wing blister)	DRSC01375	1.71e7	2.50e7		1.23e7	1.40e7
wb (wing blister)	DRSC03634	5.02e7	3.55e7		2.27e7	1.74e7
wb (wing blister)	DRSC23003	3.41e7	3.03e7		1.70e7	1.56e7
CG3588	DRSC18473	5.87e7	6.11e7	2.1	2.81e7	2.53e7
Hap40 (Huntingtin-associated protein 40 kDa)	DRSC20085	3.68e7	3.82e7		1.70e7	1.87e7
jtb (jetboil)	DRSC06868	5.77e7	6.92e7		2.49e7	3.28e7
tobi (target of brain insulin)	DRSC14435	2.96e7	4.64e7		1.60e7	2.08e7
